Our source for the binding values is paper PMC5791736.

By UniProt entry, the sequences of proteins in these tests, tags left out.
UniProt Q8TDY2: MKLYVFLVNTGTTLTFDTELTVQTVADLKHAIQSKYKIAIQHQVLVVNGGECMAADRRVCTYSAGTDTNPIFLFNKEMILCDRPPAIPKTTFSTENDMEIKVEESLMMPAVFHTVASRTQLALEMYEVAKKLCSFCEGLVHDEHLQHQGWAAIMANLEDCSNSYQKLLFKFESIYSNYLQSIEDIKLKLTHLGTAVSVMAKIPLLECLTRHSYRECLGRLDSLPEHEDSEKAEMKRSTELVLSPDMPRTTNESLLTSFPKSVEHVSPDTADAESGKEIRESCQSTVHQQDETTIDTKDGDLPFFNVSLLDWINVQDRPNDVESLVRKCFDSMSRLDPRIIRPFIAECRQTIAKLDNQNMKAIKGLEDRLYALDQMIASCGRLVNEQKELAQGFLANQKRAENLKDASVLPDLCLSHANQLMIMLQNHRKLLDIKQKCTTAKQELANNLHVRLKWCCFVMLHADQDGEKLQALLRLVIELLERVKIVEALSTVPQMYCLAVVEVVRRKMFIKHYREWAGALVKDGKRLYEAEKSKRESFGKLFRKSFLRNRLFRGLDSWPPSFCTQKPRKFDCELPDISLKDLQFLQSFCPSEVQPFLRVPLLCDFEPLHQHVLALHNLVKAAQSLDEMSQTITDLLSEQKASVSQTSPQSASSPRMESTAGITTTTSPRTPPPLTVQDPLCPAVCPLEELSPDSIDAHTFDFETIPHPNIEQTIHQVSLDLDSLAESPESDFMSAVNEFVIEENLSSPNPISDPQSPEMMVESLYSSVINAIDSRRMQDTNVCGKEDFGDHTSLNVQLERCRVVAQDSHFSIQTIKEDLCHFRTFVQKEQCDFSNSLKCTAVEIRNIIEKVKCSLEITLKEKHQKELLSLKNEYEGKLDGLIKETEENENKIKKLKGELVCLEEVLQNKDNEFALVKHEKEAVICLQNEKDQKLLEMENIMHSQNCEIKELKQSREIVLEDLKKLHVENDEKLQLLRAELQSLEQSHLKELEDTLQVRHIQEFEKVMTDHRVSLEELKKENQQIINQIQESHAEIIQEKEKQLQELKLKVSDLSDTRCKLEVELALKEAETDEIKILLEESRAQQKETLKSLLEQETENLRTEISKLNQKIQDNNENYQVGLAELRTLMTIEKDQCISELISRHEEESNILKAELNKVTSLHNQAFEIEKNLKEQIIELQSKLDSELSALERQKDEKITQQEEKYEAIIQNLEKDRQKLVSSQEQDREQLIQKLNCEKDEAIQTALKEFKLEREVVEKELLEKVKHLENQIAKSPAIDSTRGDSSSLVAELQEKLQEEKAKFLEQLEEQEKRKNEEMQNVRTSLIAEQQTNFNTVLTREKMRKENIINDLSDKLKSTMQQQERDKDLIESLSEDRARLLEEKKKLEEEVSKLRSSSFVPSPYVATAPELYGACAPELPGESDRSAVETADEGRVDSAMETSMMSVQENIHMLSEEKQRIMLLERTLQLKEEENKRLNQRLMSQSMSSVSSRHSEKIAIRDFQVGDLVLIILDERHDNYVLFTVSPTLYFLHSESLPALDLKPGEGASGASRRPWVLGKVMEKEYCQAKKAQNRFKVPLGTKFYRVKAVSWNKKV

Results are given in words; binding and its absence hold for the method and conditions named. Binding seen in cells or lysates may run through a third protein. A yes stands for co-enrichment or nearness to the bait. Other partners may have been found. Sequences can lack the tags named with a protein.

The test concerns the target T1, NTAP (FLAG-HA)-CCPG1 (human) (UniProt Q9ULG6).
T1 sequence: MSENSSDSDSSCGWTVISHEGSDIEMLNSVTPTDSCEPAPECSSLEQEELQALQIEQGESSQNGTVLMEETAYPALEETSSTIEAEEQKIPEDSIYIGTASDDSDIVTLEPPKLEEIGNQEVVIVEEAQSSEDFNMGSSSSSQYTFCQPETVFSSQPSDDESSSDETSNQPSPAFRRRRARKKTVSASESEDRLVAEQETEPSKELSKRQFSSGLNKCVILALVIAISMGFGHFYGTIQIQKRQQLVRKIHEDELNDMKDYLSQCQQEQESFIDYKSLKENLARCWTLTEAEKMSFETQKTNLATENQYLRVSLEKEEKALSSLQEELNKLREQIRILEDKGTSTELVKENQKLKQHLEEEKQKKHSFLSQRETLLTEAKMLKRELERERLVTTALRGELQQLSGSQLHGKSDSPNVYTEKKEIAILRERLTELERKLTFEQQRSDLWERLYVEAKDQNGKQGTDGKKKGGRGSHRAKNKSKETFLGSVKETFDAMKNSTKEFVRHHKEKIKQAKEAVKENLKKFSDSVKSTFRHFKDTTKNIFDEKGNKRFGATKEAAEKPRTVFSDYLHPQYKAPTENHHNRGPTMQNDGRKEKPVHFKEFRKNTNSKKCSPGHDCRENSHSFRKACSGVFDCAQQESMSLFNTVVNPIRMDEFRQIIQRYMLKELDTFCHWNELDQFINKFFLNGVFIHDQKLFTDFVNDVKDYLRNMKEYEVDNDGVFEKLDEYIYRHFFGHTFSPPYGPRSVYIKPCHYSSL
In words: affinity purification with mass spectrometry; anti-HA-agarose immunoprecipitation from A549 NTAP (FLAG-HA)-CCPG1 lysate (50 mM Tris-HCl pH 7.5, 150 mM NaCl, 0.5% Nonidet P40), HA peptide elution, LC-MS/MS, CompPASS.

Consider “FIP200 (endogenous, A549) (from UniProt Q8TDY2 1-1594)”, for which the binding entry is given as “binds”.
